Source: PMC3217976
For at least one entry, the source does not settle the construct or the ends of the probe. A weaker result is weaker than the reference pair of the same experiment.

Amino acid sequences for entries named in this document (tags omitted). Residues count along the entry.
UniProt P13393, 61-240: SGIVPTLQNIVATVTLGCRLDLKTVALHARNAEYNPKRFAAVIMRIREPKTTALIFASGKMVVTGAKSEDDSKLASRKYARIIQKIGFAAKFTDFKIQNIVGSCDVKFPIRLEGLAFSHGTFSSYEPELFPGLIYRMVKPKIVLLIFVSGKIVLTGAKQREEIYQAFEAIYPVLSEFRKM

Key:
TBPcore = TBPcore (UniProt P13393); experiment: EMSA; conditions: EMSA: 3 nM DNA, 300 nM TBPcore, 3 uM TFIIB, 4 mM Tris-HCl pH 8.0, 60 mM KCl, 5 mM MgCl2, 4% glycerol, 1 mM DTT, 100 ug/ml BSA, 0.1% Tween 20, 50 ug/ml heparin, recombinant protein, label: 5'-Cy5 on coding strand
TBPcore + TFIIB = experiment: EMSA; conditions: EMSA: 3 nM DNA, 300 nM TBPcore, 3 uM TFIIB, 4 mM Tris-HCl pH 8.0, 60 mM KCl, 5 mM MgCl2, 4% glycerol, 1 mM DTT, 100 ug/ml BSA, 0.1% Tween 20, 50 ug/ml heparin, recombinant protein, label: 5'-Cy5 on coding strand

Row | Sequence | binding result (TBPcore; strongly decreased) | binding result (TBPcore + TFIIB; strongly decreased) | binding result (TBPcore; impaired) | binding result (TBPcore + TFIIB; impaired)
1 | ACAGTAGTATACTGTGGGCCGGCCAGATATGGAACGTTAT (double strand) [HIS4 (GC-8)] | binds more weakly | binds more weakly | – | –
2 | ATTTTCATTTTTGGCCGGCCGGCCATGTAACTAATTTAGT (double strand) [TMT1 (GC-12)] | – | – | binds more weakly | binds more weakly
